Test results as given in patent US20260258004A1, “CRYSTALLINE FORMS OF (6S)-5-[4'-FLUORO-2-(TRIFLUOROMETHYL)BIPHENYL-4-YL]-6-METHYL-3,6- DIHYDRO-2H-l,3,4-OXADIAZIN-2-ONE” (Bayer Aktiengesellschaft, priority 2022, published 2026).
Further values from the same series stand in other lists.

Assay: Particle size distribution by laser diffraction (Malvern Panalytical Mastersizer 3000, Fraunhofer)
Assay type: physicochemical
Procedure: The particle size distribution was measured by laser diffraction using the Malvern Panalytical Mastersizer 3000.
The samples are again taken from example 1.6 (probe 1) and example 1.5 (probe 2), the same as used in example 4.
The sample to be analyzed is dispersed in 1 drop of Tween 80 the sample is processed according to ISO13320.
Laser diffraction is an often-used method for determination the particle size of dispersed solid materials. A widened laser beam illuminates a cuvette which contains part of the particles. By diffraction on the particles a characteristic pattern can be mapped on the detector. The resulting diffraction image is the additive overlaying of diffraction images of all particles.
Besides the mentioned detector two additional detectors are mounted in order to detect diffraction light in forward direction (FA1,9), in wide angle (LA1,2) and in back direction (BS1,2). The turbidity of the sample is measured by an extinction sensor. This is necessary to ensure a low particle concentration which is necessary to avoid wrong results by multiple diffraction of light at several particles.
The cuvette used was a wet unit where the suspension is pumped in a closed circuit with a dispersing unit that ensures a separation of single particles by shear forces.
The measurement range of the Malvern 3000 covers a particle size from 1 mm (2 mm) down to 20 nm
The calculation of the particle size distribution from the diffraction patterns was done on basis of theory of Fraunhofer.
This assumption is valid for particle sizes of 10 to 50 μm and above. For smaller particles the light scattering of the particle itself due to optical transparency must be considered which is done in the Mie-theory (not used for our probes). Precondition of the application of the Mie-theory is the knowledge of the refractive and absorption index of the dispersed solids.
Q3 is the cumulative volume distribution, e.g. D50=Q(50%) indicates 50% of the volume part of the sample is smaller than particle size of 50 μm.
The particle size is expressed as an equivalent diameter used in the method recommended by the Malvern Analysis Program and as described in ISO13320.

Measured: Cumulative volume distribution Q

C[C@@H]1OC(=O)NN=C1c1ccc(-c2ccc(F)cc2)c(C(F)(F)F)c1 [polymorph C, (6S)-5-[4′-Fluoro-2-(trifluoromethyl)biphenyl-4-yl]-6-methyl-3,6-dihydro-2H-1,3,4-oxadiazin-2-one]
2.49%: particle size D 3.55 μm, 300 s US, listed as Porbe2
0%: particle size D 0.0463 μm, 300 s US | particle size D 0.0463 μm, without US | particle size D 0.0526 μm, 300 s US | particle size D 0.0526 μm, without US | particle size D 0.0597 μm, 300 s US | particle size D 0.0597 μm, without US | particle size D 0.0679 μm, 300 s US | particle size D 0.0679 μm, without US | particle size D 0.0771 μm, 300 s US | particle size D 0.0771 μm, without US | particle size D 0.0876 μm, 300 s US | particle size D 0.0876 μm, without US | particle size D 0.0995 μm, 300 s US | particle size D 0.0995 μm, without US | particle size D 0.113 μm, 300 s US | particle size D 0.113 μm, without US | particle size D 0.128 μm, 300 s US | particle size D 0.128 μm, without US | particle size D 0.146 μm, 300 s US | particle size D 0.146 μm, without US | particle size D 0.166 μm, 300 s US | particle size D 0.166 μm, without US | particle size D 0.188 μm, 300 s US | particle size D 0.188 μm, without US | particle size D 0.214 μm, 300 s US | particle size D 0.214 μm, without US | particle size D 0.243 μm, 300 s US | particle size D 0.243 μm, without US | particle size D 0.276 μm, 300 s US | particle size D 0.276 μm, without US | particle size D 0.314 μm, 300 s US | particle size D 0.314 μm, without US | particle size D 0.357 μm, 300 s US, listed as Porbe2 | particle size D 0.357 μm, without US | particle size D 0.405 μm, 300 s US, listed as Porbe2 | particle size D 0.405 μm, without US | particle size D 0.46 μm, 300 s US, listed as Porbe2 | particle size D 0.46 μm, without US | particle size D 0.523 μm, 300 s US, listed as Porbe2 | particle size D 0.523 μm, without US | particle size D 0.594 μm, without US | particle size D 0.675 μm, without US | particle size D 0.767 μm, without US | particle size D 0.872 μm, without US | particle size D 0.991 μm, without US | particle size D 1.13 μm, without US | particle size D 1.28 μm, without US | particle size D 1.45 μm, without US | particle size D 1.65 μm, without US, listed as Probe 2 | particle size D 1.88 μm, without US, listed as Probe 2 | particle size D 2.13 μm, without US, listed as Probe 2 | particle size D 2.42 μm, without US, listed as Probe 2 | particle size D 2.75 μm, without US, listed as Probe 2 | particle size D 3.12 μm, without US, listed as Probe 2 | particle size D 3.55 μm, without US, listed as Probe 2 | particle size D 4.03 μm, without US, listed as Probe 2 | particle size D 4.58 μm, without US, listed as Probe 2 | particle size D 5.21 μm, without US, listed as Probe 2
0.33%: particle size D 0.767 μm, 300 s US, listed as Porbe2
2.8%: particle size D 4.03 μm, 300 s US, listed as Porbe2
1.04%: particle size D 1.28 μm, 300 s US, listed as Porbe2
0.5%: particle size D 0.872 μm, 300 s US, listed as Porbe2
0.86%: particle size D 1.13 μm, 300 s US, listed as Porbe2
1.67%: particle size D 2.13 μm, 300 s US, listed as Porbe2
2.02%: particle size D 2.75 μm, 300 s US, listed as Porbe2
0.67%: particle size D 0.991 μm, 300 s US, listed as Porbe2
3.16%: particle size D 4.58 μm, 300 s US, listed as Porbe2
2.24%: particle size D 3.12 μm, 300 s US, listed as Porbe2
1.83%: particle size D 2.42 μm, 300 s US, listed as Porbe2
0.2%: particle size D 0.675 μm, 300 s US, listed as Porbe2
1.37%: particle size D 1.65 μm, 300 s US, listed as Porbe2
1.21%: particle size D 1.45 μm, 300 s US, listed as Porbe2
0.08%: particle size D 0.594 μm, 300 s US, listed as Porbe2
1.52%: particle size D 1.88 μm, 300 s US, listed as Porbe2
3.57%: particle size D 5.21 μm, 300 s US, listed as Porbe2
